From PubChem BioAssay record AID1159506 (NCATS, 2015).

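Genome-wide siRNA knockdown in TC32 Ewing sarcoma cells, comparing luciferase light from an NR0B1-promoter reporter with a CMV-promoter reporter 48 hours after transfection.
Each siRNA was applied at 20 nM.
A z-score of the log NR0B1-over-CMV signal, less the median of siRNAs with the same seed; more negative means a stronger specific loss of the NR0B1 reporter.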

The strongest results of the screen are mostly left out here.
Sequences are the guide (antisense) strand, without overhang.

| # | siRNA | target gene | seed-corrected z-score |
|---|---|---|---|
| 1 | `UCUCAUUAAAUGCUGUCUC` | TSGA10 | -0.773 |
| 2 | `UCUCCUCUGAUACUCUUCC` | C11orf85 | 0.2281 |
| 3 | `UCUACUAUCCUGAUCUCUG` | LOC727838 | -0.7532 |
| 4 | `UAUGAGUCCAACAUCGUUC` | INSR | -0.05415 |
| 5 | `UAUUCAUCCACAGACUCCA` | MRPL49 | -0.8126 |
| 6 | `UUCGUGUUCCAUACUUCCC` | TM6SF1 | 0.06033 |
| 7 | `UUUCAUACAUCUGACCACU` | CRYGS | -0.7009 |
| 8 | `UUUGGUGUAAGAAUUCAGA` | CIPC | -0.2676 |
| 9 | `UGACUGAAAACUGCGCACC` | C2orf81 | -0.1009 |
| 10 | `AAAGCGAAAACAAUUAGCA` | H2BFWT | 0.4444 |
| 11 | `UUUCUUUCAUCAAUAAGGU` | MRPS34 | 0.486 |
| 12 | `UAUUGAAGCAGCCACCCAG` | LOC729224 | -1.462 |
| 13 | `UACCUUUUAUUGCAGUGUC` | WIF1 | -0.9105 |
| 14 | `UAAGCAUCAACUUCGUACG` | FXR1 | -1.204 |
| 15 | `UUUGCUGAAAUUGCUAAUG` | UEVLD | 0.8894 |
| 16 | `UAAGAGUCAAGGAAGACUG` | OR2B3 | -0.7046 |
| 17 | `UCUAGACCUAGUAAAGUGC` | NANOS1 | 0.02801 |
| 18 | `ACAGUUAGCAGAGAGGUGC` | PGC | -0.1506 |
| 19 | `UCUGCGAACAUGUUUGCGC` | ZNF503 | -0.5004 |
| 20 | `UUAGUUAUAUCUACACCAG` | TBC1D32 | -0.7281 |
| 21 | `AACAUGAUCAGACAAAAAC` | C9orf91 | 0.7577 |
| 22 | `UUCAAGACUGUAUCGUGGU` | FAM27E5 | -1.018 |
| 23 | `UUGGGUUAUAGCUUCUCUU` | LOC642262 | 0.4694 |
| 24 | `UUGUUAUCUACAGCUGUCU` | CIAPIN1 | 0.3366 |
| 25 | `AAAGCUUCUAAAUCGUCUC` | CSNK1G3 | -0.07347 |
| 26 | `UACGUGCUCAGGAUCCUUC` | NR2E3 | 0.3792 |
| 27 | `AAAAGCAAAAGCUGGGCUU` | LOC644794 | -0.3275 |
| 28 | `UUAAGUUGUCCUCUAACUC` | ZFP30 | -0.7868 |
| 29 | `UUGUGGUAGACAUUCAAGG` | GNPNAT1 | -0.5647 |
| 30 | `AACUGUGCACCAGCCUCUG` | SPRR4 | 3.002 |
| 31 | `AUAGGAGAUAAAACGCAGC` | IL20 | -1.073 |
| 32 | `UAUUUGAGGUCGUAUUUGC` | TTC23L | 0.2522 |
| 33 | `AGAGGUCCCUCAUUUGCCC` | PSG1 | 0.9188 |
| 34 | `AACUGGGUUAAAGAGGAUG` | RANBP3 | 1.07 |
| 35 | `UUGCUAAUUACUCGAGUGC` | DOCK10 | 0.119 |
| 36 | `UCAAUGGUGAAUAGCUUCC` | ELP4 | 0.09641 |
| 37 | `UAGUUGAGUUAUGUCAUCC` | MACC1 | -0.04716 |
| 38 | `UCCAGAUUAAGAGUCUUCC` | CLDN25 | -0.1323 |
| 39 | `UCAGUCAACAGGGUCUCAG` | PGS1 | -0.02333 |
| 40 | `UAUACUGAGAGUACUCUUC` | ZNF615 | 0.6701 |
| 41 | `UUGUAGACAAUUUCCAGGC` | ATP4B | 0.2262 |
| 42 | `ACUUGGAUUUGGGCUAUGC` | DBNDD2 | -0.7445 |
| 43 | `UUCCAUUCGGCACCUAGGC` | SOX14 | 1.059 |
| 44 | `UCUUAUAACCGUCAUUUUC` | PMM2 | -0.3448 |
| 45 | `AAGUGAUUAGAAACUAUCC` | TAS2R13 | 1.361 |
| 46 | `AACCAUAUUGUUGAUGUAG` | CERS5 | 0.07838 |
| 47 | `UCUGGUUCUGCGGUAGCAC` | CACNG7 | -1.892 |
| 48 | `UCUUCGUCCAGAGUCAAAA` | PDXDC2P | -0.732 |
| 49 | `UCUUGAAUGAUGUCGAUAC` | YME1L1 | 0.04947 |
| 50 | `ACAAUGACCACAAUAAGGU` | OR10H2 | -0.5975 |
| 51 | `UCGGGUGUAGAUGAUAGCC` | UGCG | -0.2695 |
| 52 | `UCUUCAUCUCCUACUAUCG` | PRR23B | -1.264 |
| 53 | `UCAUUGUCUGGUAACGUGC` | SYNGAP1 | -0.02658 |
| 54 | `UUCUAUAAUACUCAUACCC` | MEMO1 | 0.06527 |
| 55 | `UUUACGAACUUUGUAUGUC` | FRA10AC1 | 0.5764 |
| 56 | `AAGUUAACAAGAUAUGUCG` | HMGN4 | 0.3551 |
| 57 | `UAAUCUUGAACUCUAUAUC` | FBXO9 | 1.011 |
| 58 | `UCCACCUCAAAGUUUCUGU` | MAP2K3 | 0.3658 |
| 59 | `AACUGUAGCACCUUGUGCU` | GRIFIN | 1.453 |
| 60 | `UAUCUGACCAUUGACUGCC` | CD55 | 0.6437 |
| 61 | `UCUUGGGUAACACUUUGCC` | MAGEB5 | -0.4197 |
| 62 | `AAUAUUAAGACUUUGUUUC` | ATP1A4 | 0.1875 |
| 63 | `UCUAUUACCACUAGAAACC` | ARSF | -0.04418 |
| 64 | `UUCCUCAUAGUCAAUCACG` | GRM6 | -0.3917 |
| 65 | `AAUGCAGUAAUCUUGGUCU` | SUMO4 | 1.321 |
| 66 | `UCCAAAUAUAUUACCCUGC` | POU4F3 | 1.139 |
| 67 | `UAAUCGCAAAAGGCUGGGU` | C14orf180 | -0.08534 |
| 68 | `AUUCGUUCAUCAACUGCCC` | COG2 | 1.465 |
| 69 | `UGCGCUUCUAGCCUUCUGC` | C10orf82 | -1.016 |
| 70 | `UAUUCCAAGAGCGUGUGCC` | IL4I1 | 2.316 |
| 71 | `UUCACGUAAGGCAAGAGGC` | FRYL | 0.1485 |
| 72 | `UUGCGUAACGUGGACACCU` | MLX | 0.02472 |
| 73 | `UUUGGUUUCCAACCUAUCG` | RBBP9 | -0.1187 |
| 74 | `AUGAUAUUAACUGCGAGUG` | AZIN1 | 1.462 |
| 75 | `UUCUUAGUUCCAAGUAUCC` | KRBOX1 | 0.01486 |
| 76 | `UUGUUCCUUACAGUUGUCC` | NAIF1 | 0.3899 |
| 77 | `UUAUUUACCUAUUUACAAG` | RNF151 | 0.3983 |
| 78 | `UGGAUUUCCGGUGACAUUC` | RANGAP1 | -0.07996 |
| 79 | `UAACAUCACAGAUACAUUA` | VAPB | -1.011 |
| 80 | `UUAAGCAGCUCGUUAAUGG` | PLK1 | 1.203 |
| 81 | `UCUGCGAUGAAUACAGAGG` | IGSF22 | 0.7357 |
| 82 | `UGUCUGACUGGAAUCGUGG` | KLHL32 | 0.9593 |
| 83 | `UUAGCCUUGAGGUUGCUCC` | USP46-AS1 | -0.5778 |